The other results are listed elsewhere or left out.
How the values were obtained:
Assay in all cases: log2 fold change, soluble protein after heating vs DMSO (PISA); higher = thermal stabilisation; K562 cells, 10 uM, 30 min; active = over 0.2 and 3.5 SD of the protein, either way, in both replicates (recomputed)
bafetinib = compound: Cc1ccc(NC(=O)c2ccc(CN3CC[C@H](N(C)C)C3)c(C(F)(F)F)c2)cc1Nc1nccc(-c2cncnc2)n1 [bafetinib]
Summary of the method: (§1)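 K562 cells at 2×10^6 cells/mL were treated with 10 μM compound for 30 min. Aliquots were heated for 3 min across 48°C-58°C, pooled, and extracted in PBS with 0.5% NP-40 at 4°C; soluble protein was the supernatant after 21,000xg for 90 min. Soluble protein was quantified by TMTpro 16plex LC-MS/MS with channel sums equalised, and reported as log2 fold change in thermal stability against DMSO controls, with values from duplicates.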

By UniProt entry, the sequences of proteins in these tests, tags left out. Where a name states a change or a piece, a line headed by the entry shows the natural chain unless it says otherwise.
UniProt Q15843, whole entry, looked up: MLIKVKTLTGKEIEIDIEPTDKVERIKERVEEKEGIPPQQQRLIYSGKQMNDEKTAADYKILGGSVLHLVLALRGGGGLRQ
UniProt P49821, whole entry, looked up: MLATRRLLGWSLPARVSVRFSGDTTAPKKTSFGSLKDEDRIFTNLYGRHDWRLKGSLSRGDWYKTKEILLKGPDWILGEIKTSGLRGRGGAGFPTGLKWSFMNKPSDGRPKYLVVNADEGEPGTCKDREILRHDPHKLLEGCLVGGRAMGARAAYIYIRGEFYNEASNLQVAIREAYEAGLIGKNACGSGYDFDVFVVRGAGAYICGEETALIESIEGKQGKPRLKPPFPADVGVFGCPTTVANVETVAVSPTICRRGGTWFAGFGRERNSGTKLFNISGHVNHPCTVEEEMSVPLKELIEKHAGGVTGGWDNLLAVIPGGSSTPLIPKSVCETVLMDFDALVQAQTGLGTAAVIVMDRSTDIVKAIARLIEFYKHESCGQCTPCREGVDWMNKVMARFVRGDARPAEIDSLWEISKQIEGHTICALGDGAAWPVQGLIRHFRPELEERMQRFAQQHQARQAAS
UniProt P52298: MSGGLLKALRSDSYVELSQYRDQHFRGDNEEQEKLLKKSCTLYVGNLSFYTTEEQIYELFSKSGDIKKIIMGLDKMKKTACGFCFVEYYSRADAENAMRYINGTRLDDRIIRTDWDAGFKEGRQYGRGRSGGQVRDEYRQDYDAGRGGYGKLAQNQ
UniProt Q9BPX3, whole entry, looked up: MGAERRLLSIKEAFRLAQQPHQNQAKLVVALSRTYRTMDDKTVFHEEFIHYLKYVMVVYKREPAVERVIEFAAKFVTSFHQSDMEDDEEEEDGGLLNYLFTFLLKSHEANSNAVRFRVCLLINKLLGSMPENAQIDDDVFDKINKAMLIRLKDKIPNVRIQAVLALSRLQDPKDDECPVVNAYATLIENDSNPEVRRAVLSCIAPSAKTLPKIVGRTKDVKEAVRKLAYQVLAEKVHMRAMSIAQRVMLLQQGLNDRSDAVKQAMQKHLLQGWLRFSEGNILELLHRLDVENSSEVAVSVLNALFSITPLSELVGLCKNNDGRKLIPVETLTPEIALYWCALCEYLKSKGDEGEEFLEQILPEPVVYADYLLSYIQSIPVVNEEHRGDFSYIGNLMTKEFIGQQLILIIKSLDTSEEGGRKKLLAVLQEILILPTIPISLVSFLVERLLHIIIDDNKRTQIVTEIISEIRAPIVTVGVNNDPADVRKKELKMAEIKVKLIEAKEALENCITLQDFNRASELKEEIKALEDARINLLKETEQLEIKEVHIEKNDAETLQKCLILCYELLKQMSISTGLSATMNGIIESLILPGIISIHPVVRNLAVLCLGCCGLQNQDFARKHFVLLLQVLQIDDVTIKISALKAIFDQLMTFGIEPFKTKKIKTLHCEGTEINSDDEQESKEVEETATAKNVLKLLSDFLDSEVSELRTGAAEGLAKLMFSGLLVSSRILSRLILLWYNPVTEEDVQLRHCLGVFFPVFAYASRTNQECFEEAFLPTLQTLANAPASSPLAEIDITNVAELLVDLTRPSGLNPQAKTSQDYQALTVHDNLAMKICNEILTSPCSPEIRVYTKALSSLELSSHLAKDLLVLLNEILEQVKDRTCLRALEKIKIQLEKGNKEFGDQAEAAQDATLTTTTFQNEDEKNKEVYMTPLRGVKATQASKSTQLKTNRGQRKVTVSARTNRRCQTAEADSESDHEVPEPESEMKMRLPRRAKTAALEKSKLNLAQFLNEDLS
UniProt Q5TEU4: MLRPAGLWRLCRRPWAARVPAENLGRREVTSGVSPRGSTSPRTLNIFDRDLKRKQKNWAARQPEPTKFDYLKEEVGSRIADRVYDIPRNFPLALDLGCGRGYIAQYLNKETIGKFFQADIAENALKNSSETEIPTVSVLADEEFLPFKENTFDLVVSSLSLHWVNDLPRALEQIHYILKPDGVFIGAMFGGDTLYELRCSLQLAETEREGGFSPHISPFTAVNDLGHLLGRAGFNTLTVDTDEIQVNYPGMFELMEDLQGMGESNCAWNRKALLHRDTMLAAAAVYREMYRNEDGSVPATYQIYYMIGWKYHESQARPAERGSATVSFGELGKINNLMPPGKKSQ
UniProt P41227: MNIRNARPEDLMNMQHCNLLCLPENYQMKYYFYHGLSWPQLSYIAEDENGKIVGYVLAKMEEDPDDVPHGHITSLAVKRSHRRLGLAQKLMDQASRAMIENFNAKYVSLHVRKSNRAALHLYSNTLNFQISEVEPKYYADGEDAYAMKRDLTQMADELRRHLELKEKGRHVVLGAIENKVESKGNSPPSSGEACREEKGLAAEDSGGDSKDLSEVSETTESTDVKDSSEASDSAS
UniProt Q09161: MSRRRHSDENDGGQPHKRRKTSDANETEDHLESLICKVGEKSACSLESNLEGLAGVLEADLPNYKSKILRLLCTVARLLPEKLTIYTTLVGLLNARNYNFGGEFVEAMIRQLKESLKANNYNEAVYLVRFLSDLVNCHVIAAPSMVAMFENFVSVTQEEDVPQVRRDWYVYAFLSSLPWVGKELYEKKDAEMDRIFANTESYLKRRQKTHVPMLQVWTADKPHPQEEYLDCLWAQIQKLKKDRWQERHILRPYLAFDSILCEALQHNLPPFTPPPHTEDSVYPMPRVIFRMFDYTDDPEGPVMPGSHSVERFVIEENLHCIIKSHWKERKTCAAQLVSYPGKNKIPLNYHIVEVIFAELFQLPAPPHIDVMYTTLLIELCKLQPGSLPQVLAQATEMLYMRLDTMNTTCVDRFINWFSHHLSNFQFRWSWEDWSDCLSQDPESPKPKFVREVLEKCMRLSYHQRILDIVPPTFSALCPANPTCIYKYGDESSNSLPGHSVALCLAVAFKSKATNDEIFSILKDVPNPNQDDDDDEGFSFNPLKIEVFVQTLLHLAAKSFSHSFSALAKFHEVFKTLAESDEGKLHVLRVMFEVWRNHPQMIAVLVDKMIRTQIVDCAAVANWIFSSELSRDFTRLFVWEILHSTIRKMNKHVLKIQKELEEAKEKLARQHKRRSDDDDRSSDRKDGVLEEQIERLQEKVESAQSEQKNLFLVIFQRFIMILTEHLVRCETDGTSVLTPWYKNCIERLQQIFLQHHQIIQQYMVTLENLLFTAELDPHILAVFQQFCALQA
UniProt O43678, whole entry, looked up: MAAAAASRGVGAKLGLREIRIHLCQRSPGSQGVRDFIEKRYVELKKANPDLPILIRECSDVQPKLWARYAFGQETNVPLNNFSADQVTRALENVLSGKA
UniProt P19338, whole entry, looked up: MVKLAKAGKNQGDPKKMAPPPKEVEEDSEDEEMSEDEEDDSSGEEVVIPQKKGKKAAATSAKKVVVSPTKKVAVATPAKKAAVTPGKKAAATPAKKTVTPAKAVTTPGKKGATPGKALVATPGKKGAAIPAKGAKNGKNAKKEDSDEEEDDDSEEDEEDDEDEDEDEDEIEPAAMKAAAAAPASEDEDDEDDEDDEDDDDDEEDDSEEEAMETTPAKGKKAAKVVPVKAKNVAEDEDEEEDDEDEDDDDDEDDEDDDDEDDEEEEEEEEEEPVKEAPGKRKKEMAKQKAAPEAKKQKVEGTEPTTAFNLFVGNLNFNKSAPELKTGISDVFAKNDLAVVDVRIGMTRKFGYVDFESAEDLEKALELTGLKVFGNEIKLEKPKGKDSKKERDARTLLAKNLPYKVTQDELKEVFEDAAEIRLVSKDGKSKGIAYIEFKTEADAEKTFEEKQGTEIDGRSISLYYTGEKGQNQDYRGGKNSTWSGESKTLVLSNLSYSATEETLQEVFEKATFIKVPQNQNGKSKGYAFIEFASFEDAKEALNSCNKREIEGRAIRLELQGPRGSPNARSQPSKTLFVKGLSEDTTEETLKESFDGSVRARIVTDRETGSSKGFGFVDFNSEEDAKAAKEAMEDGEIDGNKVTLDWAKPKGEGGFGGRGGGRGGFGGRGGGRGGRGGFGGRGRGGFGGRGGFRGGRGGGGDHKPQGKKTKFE
UniProt Q9UHQ1: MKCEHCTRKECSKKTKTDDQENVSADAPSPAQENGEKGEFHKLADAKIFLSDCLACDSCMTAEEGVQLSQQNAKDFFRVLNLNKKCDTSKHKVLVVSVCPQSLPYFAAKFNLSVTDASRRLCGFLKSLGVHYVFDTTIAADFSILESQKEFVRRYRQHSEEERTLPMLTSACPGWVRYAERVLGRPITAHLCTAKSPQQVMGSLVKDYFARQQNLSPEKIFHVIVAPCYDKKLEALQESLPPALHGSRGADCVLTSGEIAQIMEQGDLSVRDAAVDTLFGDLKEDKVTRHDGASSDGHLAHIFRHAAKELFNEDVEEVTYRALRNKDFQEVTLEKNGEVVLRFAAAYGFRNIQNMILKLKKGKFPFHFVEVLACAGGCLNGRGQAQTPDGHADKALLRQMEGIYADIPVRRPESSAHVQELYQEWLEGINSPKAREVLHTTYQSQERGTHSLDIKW
UniProt P17050: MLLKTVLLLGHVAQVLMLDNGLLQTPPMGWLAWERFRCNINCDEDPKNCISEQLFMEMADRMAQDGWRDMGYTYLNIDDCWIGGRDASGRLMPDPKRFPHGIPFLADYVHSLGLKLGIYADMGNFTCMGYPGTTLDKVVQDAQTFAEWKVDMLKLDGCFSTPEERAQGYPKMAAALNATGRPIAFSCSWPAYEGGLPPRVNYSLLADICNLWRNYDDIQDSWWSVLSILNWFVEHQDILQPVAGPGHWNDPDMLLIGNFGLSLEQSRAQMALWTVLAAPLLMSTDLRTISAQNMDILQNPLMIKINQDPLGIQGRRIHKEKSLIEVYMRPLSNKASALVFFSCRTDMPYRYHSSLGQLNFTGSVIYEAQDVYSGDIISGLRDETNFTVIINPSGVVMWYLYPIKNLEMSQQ
UniProt Q96I59: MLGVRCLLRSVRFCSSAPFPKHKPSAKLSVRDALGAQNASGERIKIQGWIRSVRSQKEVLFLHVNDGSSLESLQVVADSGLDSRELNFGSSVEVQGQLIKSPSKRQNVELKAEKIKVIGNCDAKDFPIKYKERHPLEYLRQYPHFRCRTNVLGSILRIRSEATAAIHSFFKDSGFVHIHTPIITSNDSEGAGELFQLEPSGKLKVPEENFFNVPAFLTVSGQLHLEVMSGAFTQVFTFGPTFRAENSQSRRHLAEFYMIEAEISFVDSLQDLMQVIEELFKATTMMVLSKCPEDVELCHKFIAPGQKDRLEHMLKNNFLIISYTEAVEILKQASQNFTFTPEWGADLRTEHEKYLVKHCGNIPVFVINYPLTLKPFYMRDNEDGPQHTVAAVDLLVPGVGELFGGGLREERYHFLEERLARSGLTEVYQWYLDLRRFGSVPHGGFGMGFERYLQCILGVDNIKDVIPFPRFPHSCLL
UniProt Q6N069: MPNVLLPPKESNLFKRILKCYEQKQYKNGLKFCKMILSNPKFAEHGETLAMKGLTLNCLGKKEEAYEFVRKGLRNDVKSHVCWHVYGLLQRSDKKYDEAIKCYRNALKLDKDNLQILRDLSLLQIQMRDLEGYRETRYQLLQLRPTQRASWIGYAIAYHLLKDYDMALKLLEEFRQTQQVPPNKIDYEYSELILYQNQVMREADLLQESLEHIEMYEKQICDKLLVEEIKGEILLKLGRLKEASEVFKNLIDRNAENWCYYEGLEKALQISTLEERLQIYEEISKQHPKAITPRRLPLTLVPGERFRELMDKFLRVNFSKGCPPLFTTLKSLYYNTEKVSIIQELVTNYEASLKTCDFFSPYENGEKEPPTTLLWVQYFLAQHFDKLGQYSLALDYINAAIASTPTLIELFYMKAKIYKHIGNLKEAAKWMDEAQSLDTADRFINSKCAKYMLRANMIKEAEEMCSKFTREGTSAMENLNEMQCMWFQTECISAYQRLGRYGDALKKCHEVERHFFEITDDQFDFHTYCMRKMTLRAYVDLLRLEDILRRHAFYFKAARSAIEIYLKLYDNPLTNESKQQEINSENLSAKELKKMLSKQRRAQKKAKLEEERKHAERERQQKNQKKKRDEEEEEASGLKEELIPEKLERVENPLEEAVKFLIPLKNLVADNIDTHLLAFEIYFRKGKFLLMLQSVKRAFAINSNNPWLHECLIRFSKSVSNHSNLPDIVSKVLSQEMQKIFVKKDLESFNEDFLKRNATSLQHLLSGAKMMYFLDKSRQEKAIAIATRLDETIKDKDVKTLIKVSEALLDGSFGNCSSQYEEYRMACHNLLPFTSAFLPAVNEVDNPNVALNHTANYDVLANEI
UniProt Q9NR45: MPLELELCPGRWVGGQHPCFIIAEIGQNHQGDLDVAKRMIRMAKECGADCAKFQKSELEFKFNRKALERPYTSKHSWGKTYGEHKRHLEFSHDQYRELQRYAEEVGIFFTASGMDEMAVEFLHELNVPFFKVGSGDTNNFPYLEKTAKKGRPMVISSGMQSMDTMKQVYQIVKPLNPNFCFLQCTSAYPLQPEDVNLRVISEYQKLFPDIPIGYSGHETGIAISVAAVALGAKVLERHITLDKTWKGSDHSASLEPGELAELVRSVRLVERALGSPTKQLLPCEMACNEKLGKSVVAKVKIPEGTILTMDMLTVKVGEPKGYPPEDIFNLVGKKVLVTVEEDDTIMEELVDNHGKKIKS
UniProt P56556, whole entry, looked up: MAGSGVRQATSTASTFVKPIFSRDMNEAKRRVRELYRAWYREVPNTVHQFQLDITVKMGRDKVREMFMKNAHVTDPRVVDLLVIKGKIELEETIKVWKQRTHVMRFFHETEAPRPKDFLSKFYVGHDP

[1] = compound: Cc1cccc(CC(=O)N2CCc3c2ccc(-c2cn(C)c4ncnc(N)c24)c3F)n1
Summary of the method: as §1

nilotinib = compound: Cc1cn(-c2cc(NC(=O)c3ccc(C)c(Nc4nccc(-c5cccnc5)n4)c3)cc(C(F)(F)F)c2)cn1 [nilotinib]
Summary of the method: as §1

[2] = compound: Cc1nc(Nc2n[nH]c3c2CN(C(=O)N[C@H](CN(C)C)c2ccccc2)C3(C)C)c2sccc2n1
Summary of the method: as §1

dasatinib = compound: Cc1nc(Nc2ncc(C(=O)Nc3c(C)cccc3Cl)s2)cc(N2CCN(CCO)CC2)n1 [dasatinib]
Summary of the method: as §1

[3] = compound: Cc1ncc(-c2ccnc(Nc3ccc(S(C)(=O)=O)cc3)n2)n1C(C)C
Summary of the method: as §1

[4] = compound: Cn1cc(-c2ccc3c(c2)CCN3C(=O)Cc2cccc(C(F)(F)F)c2)c2c(N)ncnc21
Summary of the method: as §1

[5] = compound: Cn1cc(-c2ccc3nnc(C(F)(F)c4ccc5ncccc5c4)n3n2)cn1
Summary of the method: as §1

tipifarnib = compound: Cn1cncc1[C@@](N)(c1ccc(Cl)cc1)c1ccc2c(c1)c(-c1cccc(Cl)c1)cc(=O)n2C [tipifarnib]
Summary of the method: as §1

mubritinib = compound: FC(F)(F)c1ccc(/C=C/c2nc(COc3ccc(CCCCn4ccnn4)cc3)co2)cc1 [mubritinib]
Summary of the method: as §1

[6] = compound: NC(=O)Nc1cc(-c2cccc(F)c2)sc1C(=O)N[C@H]1CCCNC1
Summary of the method: as §1

[7] = compound: NC(=O)c1cnc(N[C@@H]2CCCC[C@@H]2N)nc1Nc1cccc(-n2nccn2)c1
Summary of the method: as §1

[8] = compound: NC1(c2ccc(-c3nc4ccn5c(=O)[nH]nc5c4cc3-c3ccccc3)cc2)CCC1
Summary of the method: as §1

[9] = compound: NCC(=O)Nc1ccc(-n2nc(C(F)(F)F)cc2-c2ccc3c(ccc4ccccc43)c2)cc1
Summary of the method: as §1

entinostat = compound: Nc1ccccc1NC(=O)c1ccc(CNC(=O)OCc2cccnc2)cc1 [entinostat]
Summary of the method: as §1

vorinostat = compound: O=C(CCCCCCC(=O)Nc1ccccc1)NO [vorinostat]
Summary of the method: as §1

citarinostat = compound: O=C(CCCCCCNC(=O)c1cnc(N(c2ccccc2)c2ccccc2Cl)nc1)NO [citarinostat]
Summary of the method: as §1

silmitasertib = compound: O=C(O)c1ccc2c(c1)nc(Nc1cccc(Cl)c1)c1ccncc12 [silmitasertib]
Summary of the method: as §1

[10] = compound: O=C1NC(=O)C(c2cnc3ccccn23)=C1c1cn2c3c(cc(F)cc13)CN(C(=O)N1CCCCC1)CC2
Summary of the method: as §1

[11] = compound: c1cc(OCCN2CCCCC2)cc(-c2n[nH]c3ccc(-c4nnc[nH]4)cc23)c1
Summary of the method: as §1

Measured: log2 fold change

NEDD8 (UniProt Q15843)
inactive: bafetinib -0.029 | [1] -0.118 | nilotinib 0.053 | [2] 0.009 | dasatinib 0.091 | [3] -0.034 | [4] 0.131 | [5] 0.064 | tipifarnib -0.051 | mubritinib 0.027 | [6] -0.024 | [7] -0.071 | [8] -0.007 | [9] -0.08 | entinostat 0.045 | vorinostat -0.201 | citarinostat 0.034 | silmitasertib 0.003 | [10] -0.071 | [11] -0.095

NDUFV1 (UniProt P49821)
inactive: bafetinib -0.054 | [1] 0.052 | nilotinib -0.028 | [2] 0.018 | dasatinib -0.087 | [3] -0.038 | [4] 0.028 | [5] 0.043 | tipifarnib 0.045 | mubritinib 0.021 | [6] -0.028 | [7] -0.038 | [8] -0.038 | [9] -0.022 | entinostat -0.01 | vorinostat 0.066 | citarinostat 0.042 | silmitasertib -0.028 | [10] -0.126 | [11] -0.031

NCBP2 (UniProt P52298)
inactive: bafetinib -0.066 | [1] 0.056 | nilotinib -0.021 | [2] -0.017 | dasatinib -0.036 | [3] 0.075 | [4] 0.037 | [5] 0.026 | tipifarnib 0.031 | mubritinib -0.006 | [6] -0.048 | [7] 0.023 | [8] -0.043 | [9] -0.041 | entinostat 0.013 | vorinostat -0.024 | citarinostat 0.08 | silmitasertib 0.022 | [10] -0.039 | [11] -0.078

NCAPG (UniProt Q9BPX3)
inactive: bafetinib 0.076 | [1] 0.06 | nilotinib -0.032 | [2] -0.07 | dasatinib -0.085 | [3] 0.065 | [4] -0.016 | [5] 0.012 | tipifarnib -0.142 | mubritinib -0.003 | [6] -0.062 | [7] -0.036 | [8] -0.118 | [9] -0.06 | entinostat 0.073 | vorinostat 0.101 | citarinostat 0.067 | silmitasertib 0.1 | [10] 0.005 | [11] -0.016

NACA (UniProt E9PAV3)
inactive: bafetinib -0.05 | [1] -0.022 | nilotinib -0.011 | [2] 0.017 | dasatinib 0.045 | [3] -0.016 | [4] -0.054 | [5] 0.066 | tipifarnib -0.009 | mubritinib 0.014 | [6] 0.037 | [7] 0.04 | [8] 0.044 | [9] 0.024 | entinostat -0.033 | vorinostat -0.008 | citarinostat 0.027 | silmitasertib 0.001 | [10] -0.008 | [11] -0.067

NDUFAF5 (UniProt Q5TEU4)
inactive: bafetinib 0.019 | [1] 0.025 | nilotinib -0.053 | [2] 0.064 | dasatinib -0.03 | [3] 0.01 | [4] 0.024 | [5] 0.181 | tipifarnib 0.066 | mubritinib 0.123 | [6] 0.011 | [7] -0.027 | [8] -0.066 | [9] -0.026 | entinostat 0.038 | vorinostat 0.069 | citarinostat 0.014 | silmitasertib 0.071 | [10] -0.074 | [11] -0.036

NAA10 (UniProt P41227)
inactive: bafetinib -0.027 | [1] 0.018 | nilotinib -0.041 | [2] -0.007 | dasatinib -0.06 | [3] -0.018 | [4] 0.027 | [5] 0.008 | tipifarnib -0.032 | mubritinib -0.014 | [6] -0.026 | [7] 0.046 | [8] -0.022 | [9] 0.018 | entinostat -0.001 | vorinostat 0.037 | citarinostat 0.034 | silmitasertib -0.034 | [10] -0.01 | [11] -0.024

NCBP1 (UniProt Q09161)
inactive: bafetinib -0.031 | [1] 0.003 | nilotinib -0.036 | [2] 0.016 | dasatinib -0.002 | [3] 0.074 | [4] -0.012 | [5] -0.034 | tipifarnib -0.02 | mubritinib -0.008 | [6] -0.034 | [7] -0.006 | [8] -0.076 | [9] -0.051 | entinostat 0.003 | vorinostat -0.007 | citarinostat 0.104 | silmitasertib 0.034 | [10] -0.039 | [11] -0.033

NDUFA2 (UniProt O43678)
inactive: bafetinib 0.083 | [1] 0.004 | nilotinib -0.031 | [2] 0.052 | dasatinib -0.018 | [3] -0.039 | [4] 0.085 | [5] -0.047 | tipifarnib -0.11 | mubritinib 0.148 | [6] -0.006 | [7] 0.032 | [8] -0.009 | [9] 0.016 | entinostat 0.112 | vorinostat 0.031 | citarinostat -0.019 | silmitasertib -0.124 | [10] -0.127 | [11] -0.005

Two neighbouring entries already listed, for reference:
NCBP1 (UniProt Q09161)
inactive: bafetinib -0.031 | [1] 0.003 | nilotinib -0.036 | [2] 0.016 | dasatinib -0.002 | [3] 0.074 | [4] -0.012 | [5] -0.034 | tipifarnib -0.02 | mubritinib -0.008 | [6] -0.034 | [7] -0.006 | [8] -0.076 | [9] -0.051 | entinostat 0.003 | vorinostat -0.007 | citarinostat 0.104 | silmitasertib 0.034 | [10] -0.039 | [11] -0.033

NDUFA2 (UniProt O43678)
inactive: bafetinib 0.083 | [1] 0.004 | nilotinib -0.031 | [2] 0.052 | dasatinib -0.018 | [3] -0.039 | [4] 0.085 | [5] -0.047 | tipifarnib -0.11 | mubritinib 0.148 | [6] -0.006 | [7] 0.032 | [8] -0.009 | [9] 0.016 | entinostat 0.112 | vorinostat 0.031 | citarinostat -0.019 | silmitasertib -0.124 | [10] -0.127 | [11] -0.005

The listing continues:

NCL (UniProt P19338)
inactive: bafetinib 0.272 | [1] 0 | nilotinib -0.033 | [2] 0.026 | dasatinib 0.209 | [3] 0.051 | [4] -0.445 | [5] -0.237 | tipifarnib 0.225 | mubritinib -0.325 | [6] 0.015 | [7] 0.024 | [8] 0.331 | [9] 0.156 | entinostat -0.093 | vorinostat -0.018 | citarinostat -0.105 | silmitasertib 0.2 | [10] 0.147 | [11] -0.171

NARF (UniProt Q9UHQ1)
inactive: bafetinib -0.083 | [1] 0.044 | nilotinib -0.017 | [2] -0.044 | dasatinib -0.01 | [3] 0.048 | [4] 0.006 | [5] -0.006 | tipifarnib 0.006 | mubritinib 0.027 | [6] -0.052 | [7] -0.034 | [8] -0.008 | [9] -0.012 | entinostat 0.003 | vorinostat -0.044 | citarinostat 0.022 | silmitasertib 0.047 | [10] -0.067 | [11] -0.023

NAGA (UniProt P17050)
inactive: bafetinib -0.156 | [1] -0.034 | nilotinib -0.04 | [2] 0.016 | dasatinib 0.028 | [3] 0.002 | [4] 0.04 | [5] 0.022 | tipifarnib 0.072 | mubritinib 0.047 | [6] 0.036 | [7] 0.016 | [8] -0.153 | [9] 0.029 | entinostat -0.055 | vorinostat 0 | citarinostat 0.104 | silmitasertib -0.018 | [10] -0.036 | [11] -0.044

NARS2 (UniProt Q96I59)
inactive: bafetinib -0.108 | [1] 0.034 | nilotinib -0.063 | [2] 0.069 | dasatinib -0.05 | [3] 0.005 | [4] 0.084 | [5] 0.047 | tipifarnib -0.004 | mubritinib -0.009 | [6] -0.05 | [7] 0.057 | [8] -0.142 | [9] -0.02 | entinostat 0.012 | vorinostat 0 | citarinostat 0.043 | silmitasertib -0.04 | [10] -0.064 | [11] -0.026

NAA16 (UniProt Q6N069)
inactive: bafetinib -0.029 | [1] -0.055 | nilotinib 0.013 | [2] 0.006 | dasatinib -0.087 | [3] -0.061 | [4] 0.028 | [5] -0.069 | tipifarnib 0.02 | mubritinib -0.046 | [6] -0.044 | [7] 0.038 | [8] -0.032 | [9] 0.036 | entinostat -0.016 | vorinostat 0.043 | citarinostat -0.005 | silmitasertib -0.012 | [10] -0.001 | [11] -0.092

NANS (UniProt Q9NR45)
inactive: bafetinib 0.04 | [1] 0.05 | nilotinib 0.069 | [2] -0.007 | dasatinib -0.018 | [3] -0.018 | [4] 0.05 | [5] -0.017 | tipifarnib -0.067 | mubritinib -0.023 | [6] 0.043 | [7] -0.05 | [8] 0.02 | [9] -0.032 | entinostat 0.014 | vorinostat 0.116 | citarinostat 0.032 | silmitasertib -0.002 | [10] -0.011 | [11] 0

NDUFA6 (UniProt P56556)
inactive: bafetinib 0.128 | [1] 0.301 | nilotinib -0.151 | [2] 0.021 | dasatinib -0.088 | [3] 0.027 | [4] 0.089 | [5] 0.081 | tipifarnib -0.173 | mubritinib 0.184 | [6] -0.023 | [7] 0.028 | [8] -0.113 | [9] -0.083 | entinostat 0.056 | vorinostat 0.118 | citarinostat 0.036 | silmitasertib -0.016 | [10] -0.131 | [11] -0.011

— the supplement of paper PMC10849652
